We go through one compound from publication PMC11121064 (International Journal of Molecular Sciences, 2024).

For assay [1], the system named is melanoma A375 tumor cell line. Put plainly: MTT reduction assay, A375 melanoma cells. In kind it is cell-based, human. As to the method: (§1) The cytotoxic activity was measured against the melanoma A375 tumor cell line (ECACC) and the human BJ fibroblast cell line (ATCC) using an MTT reduction assay. The selectivity index (SI) was calculated using the following formula: SI = IC50 (BJ)/ IC50 (A375).
The A375 cell line was purchased from the European Collection of Authenticated Cell Cultures (ECACC, Salisbury, UK) and the BJ human fibroblast cell line from the American Type Culture Collection (ATCC, Manassas, VA, USA). All the cell lines were grown as a monolayer in standard conditions: 37 °C, 100% humidity, under an atmosphere of 5% CO2. […] The BJ cell line was grown in EMEM with EBSS, NEAA and sodium pyruvate with L-Glutamine supplemented, 10% fetal bovine serum and 50 IU/mL penicillin/streptomycin.
Next, the cells were seeded in 96-well plates at a density of 5000 cells per well and incubated overnight to reach the logarithmic growth phase. […] After 72 h, 10 µL of MTT solution (5 g/L) was added into each well and incubated for an additional four hours. […] The absorbance was then measured at 570 nm using a SPECTROstar Nano microplate reader (BMG Biotech Inc., Cary, NC, USA)/Tecan Spark 10M. The mean value from three independent BJ and A375 cell cultures was taken to calculate the cell viability, expressed as a percentage of the control values, i.e., untreated cells assumed as 100%.

The subject of assay [2] is human BJ fibroblast cell line. Put plainly: MTT reduction assay, BJ fibroblasts. In kind it is cell-based. The note with it: 72 h. The protocol:
as §1
The A375 cell line was purchased from the European Collection of Authenticated Cell Cultures (ECACC, Salisbury, UK) and the BJ human fibroblast cell line from the American Type Culture Collection (ATCC, Manassas, VA, USA). All the cell lines were grown as a monolayer in standard conditions: 37 °C, 100% humidity, under an atmosphere of 5% CO2. The A375 cells were cultured in Dulbecco’s Modified Eagle Medium supplemented with 15% fetal calf serum and 50 IU/mL penicillin/streptomycin. The BJ cell line was grown in EMEM with EBSS, NEAA and sodium pyruvate with L-Glutamine supplemented, 10% fetal bovine serum and 50 IU/mL penicillin/streptomycin.
Next, the cells were seeded in 96-well plates at a density of 5000 cells per well and incubated overnight to reach the logarithmic growth phase. […] The absorbance was then measured at 570 nm using a SPECTROstar Nano microplate reader (BMG Biotech Inc., Cary, NC, USA)/Tecan Spark 10M. The mean value from three independent BJ and A375 cell cultures was taken to calculate the cell viability, expressed as a percentage of the control values, i.e., untreated cells assumed as 100%.
(In general: Tetrazolium dyes change colour on reduction, which living cells bring about.)

In the case of `Clc1ccc(COC(Cn2ccnc2)c2ccc(Cl)cc2Cl)c(Cl)c1` (stereo not drawn) [MCZ, miconazole], the “Selectivity index SI = IC50 (BJ)/ IC50 (A375)” value in assay [1] (BJ vs A375, 72 h) is listed as 2.12. For the same compound, the IC50 (as a rule, the point on the concentration scale where inhibition reaches its midpoint) in assay [1] (Homo sapiens, A-375, MTT, 72 h) was determined as 12.8 ± 1.1 µM; in assay [2] it was 27.1 ± 0.8 µM.
